# In article PMC7819943, “Rice protein-binding microarrays: a tool to detect cis-acting elements near promoter regions in rice”:
# Chains of the proteins cited; added tags and fusions are not shown.
# UniProt Q0JBA9, entry or part of it: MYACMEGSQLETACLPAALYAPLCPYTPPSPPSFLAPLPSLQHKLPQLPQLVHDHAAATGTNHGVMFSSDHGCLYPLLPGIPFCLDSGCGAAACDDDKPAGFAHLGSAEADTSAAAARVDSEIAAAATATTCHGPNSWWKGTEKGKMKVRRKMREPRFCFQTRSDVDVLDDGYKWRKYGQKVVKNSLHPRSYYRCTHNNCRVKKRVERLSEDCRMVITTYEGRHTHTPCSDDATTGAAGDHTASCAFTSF
# The list shows a part of the results.
# Target: OsWRKY34 (Oryza sativa, UniProt Q0JBA9 1-250)
# Test: protein-binding microarray (RPBM); PBS, 2% BSA, 51.3 ng/ul salmon testes DNA, 50 uM zinc acetate, 200 nM TF, 25 C, 1 h; high values mean tight binding
# Settings: protein: recombinant; tags: N-terminal polyhistidine and DsRed monomer fusion (pET32a); label: CyDye5-dUTP incorporated in the synthesized complementary strand; 3' TTTTT single-stranded linker to array surface; dsDNA, one strand shown
# In short: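 Per-feature fluorescence intensity (arbitrary units), read on an Axon 4000B scanner, is the binding signal. Transcription factors carrying an N-terminal polyhistidine tag and DsRed fusion were expressed in E. coli BL21-CodonPlus and purified on Ni–NTA. A custom Agilent array, made double-stranded by primer extension with Cy5-dUTP and blocked with 2% BSA, was incubated with 200 nM protein in PBS, 2% BSA, salmon testes DNA and 50 µM zinc acetate at 25 °C for 1 h and then washed.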
row,Sequence,binding signal
1,CGAGGGTTTGGGAGTCGGGGAATTCGGGGTTTGGGGCCGCCGGAGTCACCTAGTGCAG,26700 fluorescence intensity (a.u.)
2,GCATCTTGTTAAGTTGTGTGACTATGTTGCTTTGTTTTCTCGGAGTCACCTAGTGCAG,11800 fluorescence intensity (a.u.)
3,CAGATATGGATGGGTTGGTTTCCGATGTTTGGGAGACAAACGGAGTCACCTAGTGCAG,9850 fluorescence intensity (a.u.)
4,ATCCTTAAGGGGTCTTTTTTTTTGCAATTTTTCACTTAATCGGAGTCACCTAGTGCAG,8410 fluorescence intensity (a.u.)
5,TATGAGCGTTTGACCATTCGTCTTATTCAAAATTTTTGTGCGGAGTCACCTAGTGCAG,8200 fluorescence intensity (a.u.)
6,ATATATGATTTGGACTTGCTCTAACTATTTTGTTTGAACACGGAGTCACCTAGTGCAG,8450 fluorescence intensity (a.u.)
7,ACACCTCGACAAGTAGACCACCGCCCTGATCACTCGCCGCCGGAGTCACCTAGTGCAG,9320 fluorescence intensity (a.u.)
8,AATTGTTTACTGATCTTTGCGTTAATGATGATTGTGCCCTCGGAGTCACCTAGTGCAG,8660 fluorescence intensity (a.u.)
9,CCGTACTACCCCATCATGGGACATCTCTCTTGTGGCCATCCGGAGTCACCTAGTGCAG,10900 fluorescence intensity (a.u.)
10,TCGTATAAACACACACTCACACCCTTACGAACGTACGCTTCGGAGTCACCTAGTGCAG,8370 fluorescence intensity (a.u.)
11,GCACATTCTCCTCTTCTTCTTCCCGTGTTCTTGTTCTTCTCGGAGTCACCTAGTGCAG,10100 fluorescence intensity (a.u.)
12,AACCCTCGCGTGCGTCGCGTCGTCTCCTCTCTCTCTCTCTCGGAGTCACCTAGTGCAG,8420 fluorescence intensity (a.u.)
13,TATTGGGTTCCTAAGCCCTTTTTGTTTCCAGAGGCTTCTGCGGAGTCACCTAGTGCAG,9470 fluorescence intensity (a.u.)
14,AGTTTTGTACTAGGTTAAGCATTTCTTTCCTTTGACTGTCCGGAGTCACCTAGTGCAG,8090 fluorescence intensity (a.u.)
15,AGTCATCCACTATCTCCTTCCATTTCCTTCAGAGGAGCACCGGAGTCACCTAGTGCAG,10300 fluorescence intensity (a.u.)
16,GACCACCGCTCCTCGGCTGGAGGGAGCCCTCGTCGCCGGCCGGAGTCACCTAGTGCAG,8750 fluorescence intensity (a.u.)
17,AGTCTTGAAGACTGAGGCAAAGTCTGTTATCTTAATCGATCGGAGTCACCTAGTGCAG,9140 fluorescence intensity (a.u.)
18,ACTCCCACCACCGTCACGTCGCCCCTCTGCTCTCTGCACTCGGAGTCACCTAGTGCAG,8190 fluorescence intensity (a.u.)
19,ATCTGAAACCTTCACTTGTGTTCATGTAAACAGCAAGCCTCGGAGTCACCTAGTGCAG,8540 fluorescence intensity (a.u.)
20,GTCTTCAATGAGCTAAGGTCCTTTTTATTTAGGCTTTTTACGGAGTCACCTAGTGCAG,11300 fluorescence intensity (a.u.)
21,GTTCTGACTGTTGTAGGGTATACTGTTTGGTTGTTCTTTACGGAGTCACCTAGTGCAG,11500 fluorescence intensity (a.u.)
22,ATTTGTGGATGTATAAGTGTGGTGTTGGGTATGTACGCGCCGGAGTCACCTAGTGCAG,8640 fluorescence intensity (a.u.)
23,CTGCGCCTGCGTCTGCGCCACCGTCACCTTCGCGGCCGCGCGGAGTCACCTAGTGCAG,10700 fluorescence intensity (a.u.)
24,CCCTGGTTTCCGTGTCCAATGTTTGACCGTCCGTCTTATTCGGAGTCACCTAGTGCAG,10200 fluorescence intensity (a.u.)
25,TTTATCCCTTTGAATCCGGCGCGAATTTGGATTCATTTTCCGGAGTCACCTAGTGCAG,10600 fluorescence intensity (a.u.)
26,GGCGTGGGGAGGCGGAGGGAGGGAGGGGAGCGGCTGCGCACGGAGTCACCTAGTGCAG,17700 fluorescence intensity (a.u.)
27,CTAGCATGGAATTGTTTAGCCTCACTATCTTCATTTGTCCCGGAGTCACCTAGTGCAG,10300 fluorescence intensity (a.u.)

row,Sequence,binding signal
1,ATCTATCTATGTACCTACTGCAAAAGGCTGCTGATTCGTGCGGAGTCACCTAGTGCAG,10800 fluorescence intensity (a.u.)
2,CAAGTGGTTTGACCGTGGTTTGACTGACGTGGGATGCTTTCGGAGTCACCTAGTGCAG,10700 fluorescence intensity (a.u.)
3,ATCCGTTTCTTGCTTTGACTCACTATCTGATCCTAATTACCGGAGTCACCTAGTGCAG,8800 fluorescence intensity (a.u.)
4,TGACTGCCATACTACTATTCCAAAGTTCATAGTATTTCCACGGAGTCACCTAGTGCAG,8040 fluorescence intensity (a.u.)
5,CCTCGCCTCGCCTCCCCACTTCGCTTCACTGCTTCCCTACCGGAGTCACCTAGTGCAG,11100 fluorescence intensity (a.u.)
6,AGTTTTTGTTTGTCAATTTTGATCTTTCGTCTTATTTAAACGGAGTCACCTAGTGCAG,11200 fluorescence intensity (a.u.)
7,GACACCGTTGACTTTTTAAGTACGTGTTTGACCATTCGTCCGGAGTCACCTAGTGCAG,43700 fluorescence intensity (a.u.)
8,CCTATCAGTACTGTCACATCTGGTGTGTGTGTGTCCAACTCGGAGTCACCTAGTGCAG,9170 fluorescence intensity (a.u.)
9,CTGAGTTCTGTATTGGATCAGCTTCATGTTATCGGCATCACGGAGTCACCTAGTGCAG,8450 fluorescence intensity (a.u.)
10,TCCAGCTTCCTTGTCCGCTACAGCTGGCGTGGTTTTTATGCGGAGTCACCTAGTGCAG,9990 fluorescence intensity (a.u.)
11,CTAAATAGGCCTTAGTCACCTAAAGTTGACTAAACCACATCGGAGTCACCTAGTGCAG,10500 fluorescence intensity (a.u.)
12,TTGTGTGTATATGTAACTTTAAGATTTGTGATGTTACTTTCGGAGTCACCTAGTGCAG,8250 fluorescence intensity (a.u.)
13,GTTCCCGCCGACGAGCTCTTCCCCTTCCCGTCTTTCTTCCCGGAGTCACCTAGTGCAG,8700 fluorescence intensity (a.u.)
14,TCTCAGCGGCCCGAACCTGTCTACGTCGCCCGTGTCTTGTCGGAGTCACCTAGTGCAG,11200 fluorescence intensity (a.u.)
15,CTATTGCTTAGGATCTTCTTCACTCTTAGTACCAGCGAATCGGAGTCACCTAGTGCAG,8120 fluorescence intensity (a.u.)
16,GGTGTTTTTTAGGGTGCGATTTTGTTTTGCGTTTTGATCTCGGAGTCACCTAGTGCAG,10900 fluorescence intensity (a.u.)
17,AGCTAAACATTTCACTTTATCCTTGGCGGGCACATGATAACGGAGTCACCTAGTGCAG,11200 fluorescence intensity (a.u.)
18,AACGGGGTCCAGTAATCTGTAATCCAGTCATGCCATTCATCGGAGTCACCTAGTGCAG,8390 fluorescence intensity (a.u.)
19,TACGGCTGATCACATAAAACATTAGTTCATTACCGGTAACCGGAGTCACCTAGTGCAG,8680 fluorescence intensity (a.u.)
20,TTGCGGTTTAGGGTTATGGATTAGATTCGGAACAATTTTACGGAGTCACCTAGTGCAG,8140 fluorescence intensity (a.u.)
21,GCCCAAATAGACGGCCCATATTGAATCACGCAAAATTACACGGAGTCACCTAGTGCAG,10400 fluorescence intensity (a.u.)
22,AGCAGTTAGGGTTCTTGGCGTTGGGGCTTTCAATAGCGCGCGGAGTCACCTAGTGCAG,8560 fluorescence intensity (a.u.)
23,CCTCGCTCCTCCTCGTCGCAGATCGATCTCAAACCTTCAGCGGAGTCACCTAGTGCAG,8730 fluorescence intensity (a.u.)
24,GACCGATTTTGTTCTGTTTTCCATTTGTTTTTTGGCCGGGCGGAGTCACCTAGTGCAG,8560 fluorescence intensity (a.u.)
25,CTGGGGTTCAAGTTGCAGAAAAACATACACATTTTGACACCGGAGTCACCTAGTGCAG,9170 fluorescence intensity (a.u.)
26,CCGTATTCGATTCGTTTTCATTCCTACATATGTGTGTACTCGGAGTCACCTAGTGCAG,10300 fluorescence intensity (a.u.)
27,GGCTGCAGCAACGCCGACCTTTCTTCTCACGGCCCAAATCCGGAGTCACCTAGTGCAG,8480 fluorescence intensity (a.u.)

# Reformatted: results already given.
row	Sequence	binding signal
12	TTGTGTGTATATGTAACTTTAAGATTTGTGATGTTACTTTCGGAGTCACCTAGTGCAG	8250 fluorescence intensity (a.u.)
13	GTTCCCGCCGACGAGCTCTTCCCCTTCCCGTCTTTCTTCCCGGAGTCACCTAGTGCAG	8700 fluorescence intensity (a.u.)
14	TCTCAGCGGCCCGAACCTGTCTACGTCGCCCGTGTCTTGTCGGAGTCACCTAGTGCAG	11200 fluorescence intensity (a.u.)
15	CTATTGCTTAGGATCTTCTTCACTCTTAGTACCAGCGAATCGGAGTCACCTAGTGCAG	8120 fluorescence intensity (a.u.)
16	GGTGTTTTTTAGGGTGCGATTTTGTTTTGCGTTTTGATCTCGGAGTCACCTAGTGCAG	10900 fluorescence intensity (a.u.)
